Values from PubChem BioAssay AID1224826 (NIAID, 2016).

Purpose: 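Regulators of Tlr4 signalling leading to Tnf-alpha expression in macrophages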 (primary screen)
Cells: RAW264.7 G9 macrophages from mouse bearing reporters for p65 (GFP) and the Tnf promoter (mCherry)
Knock-down reagent: siRNA pool against mouse genes, 100 nM
Time to read-out: 16 h of LPS stimulation, after 2 days of siRNA transfection
Treatment: bacterial lipopolysaccharide (Salmonella minnesota R595), 10 ng/ml
Measurement: 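Imaged Tnf reporter mCherry in nuclei, minus background, normalised per plate to the median and expressed as robust z-scores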
Reading the numbers: Tnf reporter robust z-score: higher = stronger Tnf promoter reporter signal after LPS; Tnf reporter intensity: higher = stronger Tnf promoter reporter signal
Rule for the call: 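Called active when robust z-score is at most -1.3, matching the median of the Tlr4 knock-down control, or over 3; control wells and wells with under 50 cells never active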
Meaning of the calls: active = Tnf reporter clearly lowered or raised; inactive = no clear change in Tnf reporter
The whole screen tested about 17,000 reagents; this is an unselected part. About 1,110 of all reagents (6.6%) were called active. 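Active means lowered or raised reporter signal; replicate intensities are raw and not normalised per plate.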 Entries without a mark were called inactive. The numbers tell different reagents against one gene apart.

gene knocked down | reagent | Tnf reporter robust z-score | fewer than 50 cells in well | Tnf reporter intensity, replicate 1 | Tnf reporter intensity, replicate 2
Mymk (myomaker, myoblast fusion factor) | 1 | -1.04 | enough cells in well | 187 | 50.4
Sccpdh (saccharopine dehydrogenase (putative)) | 1 | -0.89 | enough cells in well | 74.3 | 120
Vps50 (VPS50 EARP/GARPII complex subunit) | 1 | 1.4 | enough cells in well | 406 | 84.7
Map2k2 (mitogen-activated protein kinase kinase 2) | 1 | -1 | enough cells in well | 130 | 125
Tmem101 (transmembrane protein 101) | 1 | 2.32 | enough cells in well | 383 | 144
Tbk1 (TANK-binding kinase 1) | 1 | 0.35 | enough cells in well | 196 | 146
Utp3 (UTP3 small subunit processome component) | 1 | -0.37 | enough cells in well | 182 | 133
Ext1 (exostosin glycosyltransferase 1) | 1 | 0.81 | enough cells in well | 308 | 276
Taar9 (trace amine-associated receptor 9) | 1 | -0.3 | enough cells in well | 199 | 256
Mrm2 (mitochondrial rRNA methyltransferase 2) | 1 | – | fewer than 50 cells per well; well left out of calls | 68.2 | 28.6
Serpina3n (serine (or cysteine) peptidase inhibitor, clade A, member 3N) | 1 | -0.2 | enough cells in well | 252 | 208
Drc10 (dynein regulatory complex subunit 10) | 1 | -1.34 (active) | enough cells in well | 108 | 70
Ssx2ip (SSX family member 2 interacting protein) | 1 | – | fewer than 50 cells per well; well left out of calls | 74 | 129
Or4n4 (olfactory receptor family 4 subfamily N member 4) | 1 | -1.16 | enough cells in well | 229 | 35.8
Il10 (interleukin 10) | 1 | 0.36 | enough cells in well | 261 | 216
Pdxp (pyridoxal (pyridoxine, vitamin B6) phosphatase) | 1 | 0.83 | enough cells in well | 327 | 218
Tlx1 (T cell leukemia, homeobox 1) | 1 | 0.88 | enough cells in well | 246 | 209
Gabbr1 (gamma-aminobutyric acid type B receptor subunit 1) | 1 | 0.42 | enough cells in well | 253 | 324
Rhot2 (ras homolog family member T2) | 1 | – | fewer than 50 cells per well; well left out of calls | 114 | 49.3
Enah (ENAH actin regulator) | 1 | -1 | enough cells in well | 203 | 64.7
Ccn5 (cellular communication network factor 5) | 1 | 1.04 | enough cells in well | 399 | 271
S100a8 (S100 calcium binding protein A8 (calgranulin A)) | 1 | -0.29 | enough cells in well | 93.3 | 137
Prmt6 (protein arginine N-methyltransferase 6) | 1 | -0.47 | enough cells in well | 121 | 161
Myo19 (myosin XIX) | 1 | -0.86 | enough cells in well | 157 | 56.4
4933414I15Rik (RIKEN cDNA 4933414I15 gene) | 1 | – | fewer than 50 cells per well; well left out of calls | 156 | 55.3
Patz1 (POZ (BTB) and AT hook containing zinc finger 1) | 1 | 0.45 | enough cells in well | 245 | 288
Cpeb4 (cytoplasmic polyadenylation element binding protein 4) | 1 | 0.39 | enough cells in well | 247 | 159
Usp8 (ubiquitin specific peptidase 8) | 1 | 2.02 | enough cells in well | 394 | 376
Wdr6 (WD repeat domain 6) | 1 | -0.89 | enough cells in well | 199 | 146
Xrcc2 (X-ray repair complementing 2) | 1 | 0.39 | enough cells in well | 281 | 234
Prl3a1 (prolactin family 3, subfamily a, member 1) | 1 | 0.42 | enough cells in well | 83.5 | 143
Acyp1 (acylphosphatase 1) | 1 | 0.23 | enough cells in well | 180 | 184
Lrrc10 (leucine rich repeat containing 10) | 1 | -1.07 | enough cells in well | 113 | 100
Apobr (apolipoprotein B receptor) | 1 | -0.55 | enough cells in well | 138 | 137
Ciapin1 (cytokine induced apoptosis inhibitor 1) | 1 | – | fewer than 50 cells per well; well left out of calls | 176 | 115
Meltf (melanotransferrin) | 1 | 0.41 | enough cells in well | 184 | 193
Tnks | 1 | – | fewer than 50 cells per well; well left out of calls | 37.9 | 0
Tnks | 2 | 0.9 | enough cells in well | 222 | 249
St6galnac6 | 1 | 1.9 | enough cells in well | 158 | 174
Cstpp1 | 1 | 0.27 | enough cells in well | 290 | 82.9

Part of the list above, limited to “Tnf reporter intensity, replicate 1”.
Or4n4 (olfactory receptor family 4 subfamily N member 4)	229
Il10 (interleukin 10)	261
Pdxp (pyridoxal (pyridoxine, vitamin B6) phosphatase)	327
Tlx1 (T cell leukemia, homeobox 1)	246
Gabbr1 (gamma-aminobutyric acid type B receptor subunit 1)	253
Rhot2 (ras homolog family member T2)	114
